Test results from publication doi:10.1101/517573.
No constants are given. Whether binding was seen depends on the method and setting. In cells and extracts the contact can be indirect. Some entries that bind do so weakly or less than the wild type. Sequences can lack the tags named with a protein.

By UniProt entry, the sequences of proteins in these tests, tags left out. Where a name states a change or a piece, a line headed by the entry shows the natural chain unless it says otherwise. Residues count along the entry.
UniProt O43765, 87-313: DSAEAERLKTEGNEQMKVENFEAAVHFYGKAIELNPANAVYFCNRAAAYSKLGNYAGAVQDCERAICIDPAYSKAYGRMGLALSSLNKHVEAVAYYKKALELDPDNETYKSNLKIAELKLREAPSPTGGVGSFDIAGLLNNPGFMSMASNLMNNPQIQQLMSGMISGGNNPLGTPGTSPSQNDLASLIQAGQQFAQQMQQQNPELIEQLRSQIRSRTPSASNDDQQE
UniProt O43765, 213-313: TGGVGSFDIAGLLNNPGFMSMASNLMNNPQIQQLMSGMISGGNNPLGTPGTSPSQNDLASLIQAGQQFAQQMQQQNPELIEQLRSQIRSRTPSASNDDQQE
UniProt O43765, 219-300: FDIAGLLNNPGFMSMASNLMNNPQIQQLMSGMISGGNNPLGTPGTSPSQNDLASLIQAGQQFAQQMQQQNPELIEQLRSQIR
UniProt O43765, 228-300, stated change not applied: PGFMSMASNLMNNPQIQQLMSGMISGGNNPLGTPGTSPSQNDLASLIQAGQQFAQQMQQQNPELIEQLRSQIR

Assays:
Assay in all cases: pull-down
[1] = molecular target: T1, ySgt2-C_(cons) (ySgt2 260-327) (Saccharomyces cerevisiae) (UniProt Q12118)
T1 sequence: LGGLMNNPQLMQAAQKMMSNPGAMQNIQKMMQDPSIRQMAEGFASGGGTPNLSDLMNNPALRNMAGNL

[2] = molecular target: T2, ySgt2-C (ySgt2 222-346) (Saccharomyces cerevisiae) (UniProt Q12118)
T2 sequence: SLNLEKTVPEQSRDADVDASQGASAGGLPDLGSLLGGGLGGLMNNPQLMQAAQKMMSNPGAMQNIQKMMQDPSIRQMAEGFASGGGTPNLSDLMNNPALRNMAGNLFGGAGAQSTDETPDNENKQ

[3] = molecular target: hSgt2-C (hSgt2 213-313) (Homo sapiens) (UniProt O43765)
[4] = molecular target: hSgt2-ΔH0 (hSgt2 228-300) (Homo sapiens) (UniProt O43765)
[5] = molecular target: T3, ySgt2-TPR-C (ySgt2 95-346) (Saccharomyces cerevisiae) (UniProt Q12118)
T3 sequence: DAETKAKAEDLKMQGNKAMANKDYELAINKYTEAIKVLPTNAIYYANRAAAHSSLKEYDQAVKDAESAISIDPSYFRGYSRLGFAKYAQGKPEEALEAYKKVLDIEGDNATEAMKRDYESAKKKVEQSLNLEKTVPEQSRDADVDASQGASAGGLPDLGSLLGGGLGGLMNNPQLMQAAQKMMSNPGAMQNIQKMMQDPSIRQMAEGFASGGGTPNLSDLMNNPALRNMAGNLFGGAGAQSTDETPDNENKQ

[6] = molecular target: hSgt2-TPR-C (hSgt2 87-313) (Homo sapiens) (UniProt O43765)
[7] = molecular target: hSgt2-C_(cons) (hSgt2 219-300) (Homo sapiens) (UniProt O43765)
[8] = molecular target: T4, ySgt2-ΔH0 (ySgt2 266-327) (Saccharomyces cerevisiae) (UniProt Q12118)
T4 sequence: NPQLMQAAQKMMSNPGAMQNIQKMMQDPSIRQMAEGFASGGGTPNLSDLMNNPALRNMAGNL

B1: MBP-Sbh1 full length (protein, UniProt P52870 1-82)
chain: MSSPTPPGGQRTLQKRKQGSSQKVAASAPKKNTNSNNSILKIYSDEATGLRVDPLVVLFLAVGFIFSVVALHVISKVAGKLF
Which binding [1] does the source give for B1 here?
The binding was “binds”.

What about the binding [2] of the same binder?
Its binding is “binds”.

What about the binding [3] of the same binder?
Its binding is “binds”.

What about the binding [4] of the same binder?
The binding was “binds”.

What about the binding [5] of the same binder?
Its binding is “binds”.

And the binding [6]?
Its binding is “binds”.

And the binding [7]?
The binding was “binds”.

And the binding [8]?
The binding was “binds weakly”.
